In patent US20170226208A1 (SUPPREMOL, published 2017):
No constants are given. Whether binding was seen depends on the method and setting. Some binding calls cover weakened binding; strength is not graded here.

Amino acid sequences for entries named in this document (tags omitted). Residues count along the entry.
UniProt P31994, residues 43-310: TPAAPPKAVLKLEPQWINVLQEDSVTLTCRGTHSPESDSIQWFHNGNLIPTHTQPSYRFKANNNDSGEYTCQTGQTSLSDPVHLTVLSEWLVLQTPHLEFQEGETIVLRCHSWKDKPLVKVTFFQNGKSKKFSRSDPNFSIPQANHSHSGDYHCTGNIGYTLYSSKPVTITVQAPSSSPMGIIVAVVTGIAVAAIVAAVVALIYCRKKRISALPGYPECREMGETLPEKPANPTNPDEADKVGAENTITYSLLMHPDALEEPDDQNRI
UniProt P12319, residues 26-205: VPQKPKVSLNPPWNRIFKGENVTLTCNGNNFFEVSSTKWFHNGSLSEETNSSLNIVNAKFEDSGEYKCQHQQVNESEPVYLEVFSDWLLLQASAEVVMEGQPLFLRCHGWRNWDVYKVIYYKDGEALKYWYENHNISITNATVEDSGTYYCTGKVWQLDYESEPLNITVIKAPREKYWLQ

Tests used:
[1] = biological target: recombinant soluble human FcγRIIB (UniProt P31994); assay: summary of the binding experiments (ELISA, FACS, Biacore)
[2] = biological target: native FcγRIIB expressed on cells (Raji, Daudi, PBMC B cells) (human) (UniProt P31994); assay: FACS on Raji cells, FITC anti-human kappa detection
[3] = biological target: recombinant soluble FcεRIα (His-tagged extracellular domain of human FcεRIα) (human) (UniProt P12319); assay: ELISA, sFcεRIα coated, anti-human kappa-HRP detection
[4] = biological target: recombinant soluble FcεRIα (His-tagged extracellular domain of human FcεRIα) (human) (UniProt P12319); assay: ELISA, sFcεRIα coated (FIG. 20)
[5] = biological target: recombinant soluble human FcγRIIB (UniProt P31994); assay: sandwich ELISA: SM101 coated, antibody, then sFcεRIα, detected with biotinylated anti-FcεRIα CRA1
[6] = biological target: recombinant soluble FcεRIα (His-tagged extracellular domain of human FcεRIα) (human) (UniProt P12319); assay: as above
[7] = biological target: recombinant soluble FcεRIα (His-tagged extracellular domain of human FcεRIα) (human) (UniProt P12319); assay: summary of the binding experiments (ELISA, sandwich ELISA, Biacore)
[8] = biological target: recombinant soluble FcεRIα (His-tagged extracellular domain of human FcεRIα) (human) (UniProt P12319); assay: ELISA, sFcεRIα coated (FIG. 17)
[9] = biological target: recombinant soluble human FcγRIIB (UniProt P31994); assay: ELISA, SM101 (sFcγRIIB) coated, anti-human kappa-HRP detection
[10] = biological target: recombinant soluble FcεRIα (His-tagged extracellular domain of human FcεRIα) (human) (UniProt P12319); assay: ELISA, sFcεRIα coated
[11] = biological target: recombinant soluble human FcγRIIB (UniProt P31994); assay: ELISA, SM101 coated (FIG. 16)
[12] = biological target: recombinant soluble human FcγRIIB (UniProt P31994); assay: sandwich ELISA: SM101 coated, antibody, then sFcεRIα

Measured: binding

B1: ch8A6_cε2-4 (bispecific antibody, not shown: large carriers)
heavy: EVQLVESGGDLVQPGRSLRLSCAASGFTFSDYYMAWVRQAPKKGLEWVASISSDGSNTYYGDSVKGRFTISRDNTRSNLYLQMNSLRSEDTATYYCARPGDYWGQGVMVTVSSASTKGPSVFPLAPSSKSTSGGTAALGCLVKDYFPEPVTVSWNSGALTSGVHTFPAVLQSSGLYSLSSVVTVPSSSLGTQTYICNVNHKPSNTKVDKRVEPKSCDKTFSVSSRDFTPPTVKILQSSCDGGGHFPPTIQLLCLVSGYTPGTINITWLEDGQVMDVDLSTASTTQEGELASTQSELTLSQKHWLSDRTYTCQVTYQGHTFEDSTKKCADSNPRGVSAYLSRPSPFDLFIRKSPTITCLVVDLAPSKGTVNLTWSRASGKPVNHSTRKEEKQRNGTLTVTSTLPVGTRDWIEGETYQCRVTHPHLPRALMRSTTKTSGPRAAPEVYAFATPEWPGSRDKRTLACLIQNFMPEDISVQWLHNEVQLPDARHSTTQPRKTKGSGFFVFSRLEVTRAEWEQKDEFICRAVHEAASPSQTVQRAVSVNPGK
light: NIVMTQSPTSMFISVGDRVTMNCKASQNVGTYVDWFQQKTGQSPTLLIFGASNRYTGVPDRFTGSGSGTDFTLSISNMQAEDLAVYYCLQYNYHPYTFGPGTTLELKR
binds: [1] | [2] | [3] | [4] | [5] | [6] | [7] | [8] | [9] | [10] | [11]

B2: ch8A6_cε3-4 (bispecific antibody, not shown: large carriers)
heavy: EVQLVESGGDLVQPGRSLRLSCAASGFTFSDYYMAWVRQAPKKGLEWVASISSDGSNTYYGDSVKGRFTISRDNTRSNLYLQMNSLRSEDTATYYCARPGDYWGQGVMVTVSSASTKGPSVFPLAPSSKSTSGGTAALGCLVKDYFPEPVTVSWNSGALTSGVHTFPAVLQSSGLYSLSSVVTVPSSSLGTQTYICNVNHKPSNTKVDKRVEPKSCDKTHTCPPCPAPELLGGVSAYLSRPSPFDLFIRKSPTITCLVVDLAPSKGTVNLTWSRASGKPVNHSTRKEEKQRNGTLTVTSTLPVGTRDWIEGETYQCRVTHPHLPRALMRSTTKTSGPRAAPEVYAFATPEWPGSRDKRTLACLIQNFMPEDISVQWLHNEVQLPDARHSTTQPRKTKGSGFFVFSRLEVTRAEWEQKDEFICRAVHEAASPSQTVQRAVSVNPGK
light: B1 light
binds: [12] | [1] | [2] | [5] | [9] | [11]
